Measurements published in patent US20060216761A1, “Isolation material for hormone disrupting substance, method of concentrating and method of clean-up” (priority 2002, published 2006).
For at least one compound, name, drawing or mass did not settle the structure.

System: purified anti-estrogen polyclonal antibody
Assay: Cross reactivity of purified anti-estrogen polyclonal antibody
Format: binding, rabbit
Details: assuming E2=100%
Protocol: In the E3-16G-KLH-immunized rabbits, third immunization (immunization number 3) led to an equilibrium of antibody titer, and 168 mg of purified anti-estrogen polyclonal antibody was obtained from one rabbit.

C[C@]12CC[C@@H]3c4ccc(O)cc4CC[C@H]3[C@@H]1CCC2=O [Estrone (E1), Estrone]
Cross reactivity: 100%
